In article PMC4015341 one finds binding data, which are given here for 2 molecules.

No constants are given. Whether binding was seen depends on the method and setting. In cells and extracts the contact can be indirect. Binding calls can cover weak binding; strength is not graded here. Tags and fused reporters may be left off the sequences shown.

This assay concerns the target LUFS domain of LUH as N-LUC fusion (Arabidopsis thaliana). The assay can be described thus: split reporter; split luciferase complementation in Arabidopsis protoplasts; 15 ug of each N-LUC and C-LUC fusion plasmid, 5 x 10^4 protoplasts, 16 h in the dark at room temperature; LUC relative to Renilla LUC.

B1: SLK2 as C-LUC fusion (protein, UniProt Q94BP0 1-816)
chain: MASSTSGIFFQGDDESQSFINSHLTSSYGNSSNSAPGCGGPTGGYHNLSMVSGDMHNPVMMSVSTPGPSAGASSLVTDANSGLSGGGPHLQRSASINNESYMRLPASPMSFSSNNISISGSSVVDGSTVVQRHDPSVQLGGSSATSLPTSQTNQIPLSMARRASESFFQDPNNLTQARKKPRLDSKQDDALQQQILRQWLQRQDILQQQQQQQQQGQNPQFQILLQQQKLRQQQQYLQSLPPLQRVQLQQQQQVQQQQQLQQQHQQQQQQLQQQGMQMQLTGGPRPYENSVCARRLMQYLYHQRQRPSESSIVYWRKFVTEYFSPRAKKRWCLSHYDNVGHSALGVSPQAATDEWQCDLCGSKSGRGFEATFDVLPRLNEIKFASGVLDELLYLGVPSERRYGSGIMVLEYGKAVQESVYEHIRVVREGHLRIIFSQELKILSWEFCTRRHEELLPRRLVAPQVNQLLQVAEKCQSTIDQSGSDGIHQQDLQANSNMVMAAGRQLAKSLESHSLNDLGFSKRYVRCLQISEVVSSMKDMIDFCRDQKVGPIEALKSYPYRMKAGKPQMQEMEQLAAARGLPPDRNSLNKLMALRNSGINIPMNNMSGQGSLPGSAQAAAFALTNYQSMLMKQNHLNSDLNNTTIQQEPSRNRSASPSYQGTSPLLPGFVHSPSISGVSSHLSPQRQMPSSSYNGSTQQYHQQPPSCSSGNQTLEQQMIHQIWQQMANSNGGSGQQQQSLSGQNMMNCNTNMGRNRTDYVPAAAETPSTSNRFRGIKGLDQSQNLEGIISNTSLNFGNNGVFSNEVDESMGGYSWKS
Consider B1, for which the binding entry was “binds”.

B2: SLK1 as C-LUC fusion (protein, UniProt Q0WVM7 1-748)
chain: MNRTVVSGAVESSFSLTDAVGTEALNMQRSSGINNNMRIPTSPMSFSSNSVNIPGSLVLDGSAASMQHLPQQQQQQLLQQQTGQGSVPMRENNYSHVDKKPRLEVKQEDMLQQQILQQLIQRQDPTGRNPQMQALLQQQRLRQHQQMLQSMSPSQRLQLQQQQQLRQQLQQQGTQQIPPNVRPYEVGVCARKLMMYLYHLQQRPAENCITYWRKFVAEYFSPRAKQRLCLSQYESAGHHALGMFPQAAPDMWQCDLCGTKSGKGFEATFDVLARLIEIKFASGIIDELLYLDHPRENRFPNGLMMLEYRKAVQETVHEQFRVVREGHLRIIFSQDLKILSWEFCARRHEELLLRRLIAPQVNQLLQVAQKCQSTISESGSEGVSQQDLQSNSNMVLGAGRQLAKFMELQSLNDLGYPKRYIRTLQISEVVKSMKDLMNFTGEQKIGPIEGLKRLLEQTVTVKLQKQKMQEMEQFGNNGAINGPVQAQMVLTSGTMNGSTGNNTNNHHQIVGRGAMSGPAEGQMVISSGTVSGATANNNSNNHNQIVGRGAMNGSAQAAAALTNYQSMLMRQNAMNNPNSNTGKQEGFSSQNPTPNSNQSPSSSSQQRHNLVTGGFPNSPQMQQQQRTMNGPTNILPQNHPHQLQSPHSHGNTPEQQMLHQLLQEMSENGGSVQQQQAFSGQSGSNSNAERNTTASTSNISGGGRAPSRNNSFKAASNNNLHFSEDISITDHDFSEDGFFNNNDIYGGL
For B2, the binding entry is listed as “binds”.
